Source: US20230303711A1
Results are given in words; binding and its absence hold for the method and conditions named. Some binding calls cover weakened binding; strength is not graded here.

Target: macaque CD47-Fc (macaque)
Test: ELISA on coated macaque CD47-Fc

B1: Antibody 17 (antibody, human IgG1, kappa, V domains shown)
VH: QVQLQESGPGLVKPSETLSLTCTVSGGSLDNYYWSWIRQPPGKGLEWIGYIYYSGNTNYNPSLKSRVTISVDTSKNQFSLRLRSVTAADTAVYYCARGGRFLERYWGQGTLVTVSS
VL: DIQMTQSPSSVSASVGDRVTISCRANQAIGTWLAWYQQKPGKAPKLLIYAASTLQSGVPSRFSGSGSGTEFTLTISSLQAEDVAVYYCQQYYTTPLTFGGGTKLEIKR
  binding: binds
